Results published in the supplement of paper PMC4862054.
Small differences around the control level are noise.

What was measured:
Assay in all cases: normalised response (% of control), CellTox Green; higher = less cell death (100 = DMSO, 0 = benzethonium chloride kill control)
Conditions in all cases: incubation time: 72 h
MCF-10A = system: MCF-10A
Method: (§1)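 DSRT, 72 h incubation, CellTox Green / CellTiter-Glo readout. Signal is normalised to DMSO and benzethonium chloride controls. Value is the normalised response at the lowest tested concentration.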

BT-549 = system: BT-549
Method: as §1

HDQ-P1 = system: HDQ-P1
Method: as §1

CAL-120 = system: CAL-120
Method: as §1

MDA-MB-453 = system: MDA-MB-453
Method: as §1

Hs578T = system: Hs578T
Method: as §1

HCC1937 = system: HCC1937
Method: as §1

MDA-MB-436 = system: MDA-MB-436
Method: as §1

MFM-223 = system: MFM-223
Method: as §1

BT-474 = system: BT-474
Method: as §1

CAL-85-1 = system: CAL-85-1
Method: as §1

CAL-148 = system: CAL-148
Method: as §1

HCC1599 = system: HCC1599
Method: as §1

DU-4475 = system: DU-4475
Method: as §1

MDA-MB-231 = system: MDA-MB-231
Method: as §1

CAL-51 = system: CAL-51
Method: as §1

MDA-MB-468 = system: MDA-MB-468
Method: as §1

HCC1143 = system: HCC1143
Method: as §1

SMILES	normalised response (MCF-10A) [%]	normalised response (BT-549) [%]	normalised response (HDQ-P1) [%]	normalised response (CAL-120) [%]	normalised response (MDA-MB-453) [%]	normalised response (Hs578T) [%]	normalised response (HCC1937) [%]	normalised response (MDA-MB-436) [%]	normalised response (MFM-223) [%]	normalised response (BT-474) [%]	normalised response (CAL-85-1) [%]	normalised response (CAL-148) [%]	normalised response (HCC1599) [%]	normalised response (DU-4475) [%]	normalised response (MDA-MB-231) [%]	normalised response (CAL-51) [%]	normalised response (MDA-MB-468) [%]	normalised response (HCC1143) [%]
CN1CCC(COc2cnc(-c3cccc(Cn4nc(-c5cccc(C#N)c5)ccc4=O)c3)nc2)CC1 (0.1 nM)	98.3	96.9	101	95.8	110	106	112	79	90.3	102	105	97.7	91.2	98	109	84.6	–	–
COc1cc(CCc2cc(NC(=O)c3ccc(N4CC(C)NC(C)C4)cc3)n[nH]2)cc(OC)c1 (centres undefined) [AZD4547] (0.1 nM)	104	67.1	91.3	98.7	98.6	92.1	85.9	69.2	91.2	97.2	103	95.3	88.9	94.6	105	116	122	–
COc1cc(Nc2ncc3c(n2)-c2ccc(Cl)cc2C(c2c(F)cccc2OC)=NC3)ccc1C(=O)O [Alisertib] (1 nM)	104	87.7	76.6	97.7	98	101	59.9	64.3	93.7	96.9	94.2	103	96.4	95.1	102	120	91.8	94.4
CC(C)c1c(C(=O)Nc2ccccc2)c(-c2ccccc2)c(-c2ccc(F)cc2)n1CC[C@@H](O)C[C@@H](O)CC(=O)O [Atorvastatin] (1 nM)	102	95.2	95.9	101	104	105	103	81.5	100	100	95.9	103	105	106	96.8	106	85.9	120
CC(=O)OC[C@H]1O[C@@H]([S-])[C@H](OC(C)=O)[C@@H](OC(C)=O)[C@@H]1OC(C)=O.CCP(CC)CC.[Au+] [Auranofin] (0.25 nM)	99.8	110	106	108	107	82.7	109	111	95.5	104	103	51.5	127	117	124	111	80.7	96
CNC(=O)c1ccccc1Sc1ccc2c(/C=C/c3ccccn3)n[nH]c2c1 [Axitinib] (1 nM)	107	113	96.1	101	116	110	113	104	103	103	112	108	106	104	99.1	101	100	125
Nc1ncn([C@@H]2O[C@H](CO)[C@@H](O)[C@H]2O)c(=O)n1 [Azacitidine] (1 nM)	98.6	103	81.5	96.7	105	103	90.3	95.4	105	98.7	103	77.9	98.4	101	75.9	112	141	120
C=CC(=O)Nc1cc2c(Nc3ccc(F)c(Cl)c3)ncnc2cc1OCCCN1CCOCC1 [Canertinib] (1 nM)	93.3	87.9	96.1	96.2	71.5	74.5	88.1	93.5	99.5	106	105	108	106	102	101	125	106	98.7
O=NN(CCCl)C(=O)NCCCl [Carmustine] (1 nM)	79.6	79.6	94.1	97.5	101	80.9	101	73.1	96.5	98.5	97.8	81.6	99.2	98.6	100	64.6	78.9	115
CC1(COc2ccc3c(c2)ncn3-c2ccc3cccc(N4CCC(N)CC4)c3n2)COC1 [Crenolanib] (1 nM)	96.4	103	96.9	105	103	109	110	–	101	98.9	87.6	99.3	108	104	107	117	75.7	121
C[C@]12CC[C@@H]3c4ccc(O)cc4C[C@@H](CCCCCCCCC[S+]([O-])CCCC(F)(F)C(F)(F)F)[C@H]3[C@@H]1CC[C@@H]2O (some centres undefined) [Fulvestrant] (0.1 nM)	104	80.3	84.5	101	104	90.7	110	94.8	97.1	99.7	105	104	109	103	107	122	87.3	118
Cc1cc(Nc2cc(CN3CCOCC3)c3nc(C)c(Cc4ccc(Cl)cc4F)n3n2)n[nH]1 [Gandotinib] (1 nM)	96.9	98.7	84.2	101	112	77.2	95.3	98.4	94.2	104	105	69.9	96.9	101	96.1	117	94.2	83.4
NC(=O)NO [Hydroxyurea] (10 nM)	91.1	94.2	102	103	104	77.9	100	114	90.4	100	101	107	109	105	–	103	63.4	116
O=C(Nc1ccncc1)C(=O)c1cn(Cc2ccc(Cl)cc2)c2ccccc12 [Indibulin] (1 nM)	90.6	103	90.6	98.5	114	110	87.9	89.5	105	106	106	110	106	103	105	109	96.4	123
CCc1c2c(nc3ccc(OC(=O)N4CCC(N5CCCCC5)CC4)cc13)-c1cc3c(c(=O)n1C2)COC(=O)[C@]3(O)CC [Irinotecan] (1 nM)	88.5	101	66.7	93	101	106	90	63.3	92.9	104	103	67.5	89.3	98.7	106	110	107	71.5
Clc1ccc(C(c2ccccc2Cl)C(Cl)Cl)cc1 (centres undefined) [Mitotane] (1 nM)	92.5	87.5	77.7	99.3	101	57.2	80.2	105	89.8	98.5	97.1	–	100	99.5	99.8	106	109	112
COc1ccccc1S(=O)(=O)Nc1ccc2c(c1)CN(C)C(=O)N2 [PFI-1] (1 nM)	100	96.3	113	107	108	91.2	104	99.9	101	98	107	106	128	117	128	85.5	51.5	128
C[C@]12C=CC(=O)C=C1CC[C@@H]1[C@@H]2C(=O)C[C@@]2(C)[C@H]1CC[C@]2(O)C(=O)CO [Prednisone] (1 nM)	84.5	106	93.8	94.7	108	–	81.5	73.9	88.7	102	100	99.8	99.3	102	118	95.8	112	–
Cn1c(Nc2ccc(C(F)(F)F)cc2)nc2cc(Oc3ccnc(-c4ncc(C(F)(F)F)[nH]4)c3)ccc21 [RAF265] (0.1 nM)	94	95.7	95.7	101	105	89.2	92.4	87.4	104	105	102	–	98.2	103	113	113	117	95.5
O=[N+]([O-])c1ccc2c(c1)S(=O)(=O)C=C2 [Stattic] (5 nM)	100	99.6	93.6	103	103	110	75.5	93.1	97.5	99.6	106	99.7	108	107	101	96.3	75.3	75.5
Cn1c(=O)c(F)c(Nc2ccc(I)cc2F)c2c(=O)n(C[C@@H](O)CO)cnc21 [TAK-733] (0.1 nM)	95.4	101	101	100	73.7	95.9	89.9	88.4	106	97.1	97.1	103	117	110	121	115	76.8	110
CC/C(=C(\c1ccccc1)c1ccc(OCCN(C)C)cc1)c1ccccc1 [Tamoxifen] (1 nM)	114	92.7	103	104	106	59.8	120	98.9	96.4	99.8	92.8	73.9	111	107	116	119	80.8	112
Cn1cncc1[C@@](N)(c1ccc(Cl)cc1)c1ccc2c(c1)c(-c1cccc(Cl)c1)cc(=O)n2C [Tipifarnib] (1 nM)	102	106	97	95.7	109	71.9	69.9	97.6	96.8	102	97.9	98.9	99.1	100	89.8	120	–	109

2 entries from above in a different format:
SMILES | normalised response (MCF-10A) [%] | normalised response (BT-549) [%] | normalised response (HDQ-P1) [%] | normalised response (CAL-120) [%] | normalised response (MDA-MB-453) [%] | normalised response (Hs578T) [%] | normalised response (HCC1937) [%] | normalised response (MDA-MB-436) [%] | normalised response (MFM-223) [%] | normalised response (BT-474) [%] | normalised response (CAL-85-1) [%] | normalised response (CAL-148) [%] | normalised response (HCC1599) [%] | normalised response (DU-4475) [%] | normalised response (MDA-MB-231) [%] | normalised response (CAL-51) [%] | normalised response (MDA-MB-468) [%] | normalised response (HCC1143) [%]
O=[N+]([O-])c1ccc2c(c1)S(=O)(=O)C=C2 [Stattic] (5 nM) | 100 | 99.6 | 93.6 | 103 | 103 | 110 | 75.5 | 93.1 | 97.5 | 99.6 | 106 | 99.7 | 108 | 107 | 101 | 96.3 | 75.3 | 75.5
Cn1c(=O)c(F)c(Nc2ccc(I)cc2F)c2c(=O)n(C[C@@H](O)CO)cnc21 [TAK-733] (0.1 nM) | 95.4 | 101 | 101 | 100 | 73.7 | 95.9 | 89.9 | 88.4 | 106 | 97.1 | 97.1 | 103 | 117 | 110 | 121 | 115 | 76.8 | 110
